{"source": "PubChem BioAssay AID504764, Drosophila RNAi Screening Center | 2011", "screen": "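Knock-downs that raise or lower a Notch target reporter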 (primary screen)", "cell system": "Drosophila Kc167 cells", "knock-down reagent": "long dsRNA against Drosophila genes", "duration": "about 5 days (4 days dsRNA, then 24 h after transfection)", "treatment": "transfection of constitutively active membrane-tethered Notch lacking the extracellular domain, read 24 h later", "read-out": "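Light from a Notch-responsive E(spl)m3 luciferase reporter under active Notch, with control-promoter and no-Notch reporter wells to normalise; raw counts from paired wells a and b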", "scale": "induced reporter light, run 1, well a and induced reporter light, run 1, well b: higher = more light from the Notch target reporter with active Notch; control promoter light, run 1, well a and control promoter light, run 1, well b: higher = more light from the viral control promoter (cell number, transfection, viability); uninduced reporter light, run 1, well a: higher = more light from the Notch target reporter without active Notch", "active means": "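Hit if the duplicate-averaged log2 ratio of induced to control-promoter light gives a plate-wise z beyond ±2, or induced to uninduced beyond ±1.8; weak-control or discordant-duplicate wells dropped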", "meaning of the calls": "active = modifier hit (raised or lowered Notch signal); inactive = not a hit", "note": "The deposit covers about 22,000 reagents; below is an unselected part of those with a known target gene and a result. In the full data, 403 (1.9%) are marked active. 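Unnormalised raw counts per well; ratio z-scores behind the hit calls and whether each hit raises or lowers signal are not deposited.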 Reagent sequences are not shown. The record does not give: the amount of reagent."}
The first 2 records, ahead of the listing:
{"target": "Fcp1", "amplicon": "DRSC04121", "induced reporter light, run 1, well a": 1.78e5, "induced reporter light, run 1, well b": 2.59e5, "control promoter light, run 1, well a": 2.10e5, "control promoter light, run 1, well b": 1.95e5, "uninduced reporter light, run 1, well a": 21865, "outcome": "inactive"}
{"target": "Mst84Db", "amplicon": "DRSC12542", "induced reporter light, run 1, well a": 70890, "induced reporter light, run 1, well b": 82760, "control promoter light, run 1, well a": 88430, "control promoter light, run 1, well b": 68550, "uninduced reporter light, run 1, well a": 3795, "outcome": "inactive"}

Results, from the first entry:
{"target": "Fcp1", "amplicon": "DRSC04121", "induced reporter light, run 1, well a": 1.78e5, "induced reporter light, run 1, well b": 2.59e5, "control promoter light, run 1, well a": 2.10e5, "control promoter light, run 1, well b": 1.95e5, "uninduced reporter light, run 1, well a": 21865, "outcome": "inactive"}
{"target": "Mst84Db", "amplicon": "DRSC12542", "induced reporter light, run 1, well a": 70890, "induced reporter light, run 1, well b": 82760, "control promoter light, run 1, well a": 88430, "control promoter light, run 1, well b": 68550, "uninduced reporter light, run 1, well a": 3795, "outcome": "inactive"}
{"target": "Mst84Db", "amplicon": "DRSC12598", "induced reporter light, run 1, well a": 83520, "induced reporter light, run 1, well b": 83495, "control promoter light, run 1, well a": 81830, "control promoter light, run 1, well b": 71660, "uninduced reporter light, run 1, well a": 4815, "outcome": "inactive"}
{"target": "mael", "amplicon": "DRSC11894", "induced reporter light, run 1, well a": 1.17e5, "induced reporter light, run 1, well b": 1.01e5, "control promoter light, run 1, well a": 63715, "control promoter light, run 1, well b": 77560, "uninduced reporter light, run 1, well a": 7285, "outcome": "inactive"}
{"target": "St3", "amplicon": "DRSC04505", "induced reporter light, run 1, well a": 2.00e5, "induced reporter light, run 1, well b": 1.75e5, "control promoter light, run 1, well a": 1.67e5, "control promoter light, run 1, well b": 1.61e5, "uninduced reporter light, run 1, well a": 17340, "outcome": "inactive"}
{"target": "pon", "amplicon": "DRSC18823", "induced reporter light, run 1, well a": 1.56e5, "induced reporter light, run 1, well b": 1.70e5, "control promoter light, run 1, well a": 4.01e5, "control promoter light, run 1, well b": 2.80e5, "uninduced reporter light, run 1, well a": 13010, "outcome": "inactive"}
{"target": "Trmt6", "amplicon": "DRSC03272", "induced reporter light, run 1, well a": 1.85e5, "induced reporter light, run 1, well b": 1.30e5, "control promoter light, run 1, well a": 1.59e5, "control promoter light, run 1, well b": 1.74e5, "uninduced reporter light, run 1, well a": 9245, "outcome": "inactive"}
{"target": "chas", "amplicon": "DRSC19508", "induced reporter light, run 1, well a": 51575, "induced reporter light, run 1, well b": 52940, "control promoter light, run 1, well a": 67620, "control promoter light, run 1, well b": 67040, "uninduced reporter light, run 1, well a": 9055, "outcome": "inactive"}
{"target": "chas", "amplicon": "DRSC19509", "induced reporter light, run 1, well a": 71465, "induced reporter light, run 1, well b": 44625, "control promoter light, run 1, well a": 65165, "control promoter light, run 1, well b": 55035, "uninduced reporter light, run 1, well a": 8455, "outcome": "inactive"}
{"target": "CG33296", "amplicon": "DRSC00998", "induced reporter light, run 1, well a": 1.46e5, "induced reporter light, run 1, well b": 1.68e5, "control promoter light, run 1, well a": 1.99e5, "control promoter light, run 1, well b": 1.78e5, "uninduced reporter light, run 1, well a": 10640, "outcome": "inactive"}
{"target": "Rcd6", "amplicon": "DRSC06054", "induced reporter light, run 1, well a": 1.25e5, "induced reporter light, run 1, well b": 1.05e5, "control promoter light, run 1, well a": 1.80e5, "control promoter light, run 1, well b": 1.74e5, "uninduced reporter light, run 1, well a": 8475, "outcome": "inactive"}
{"target": "Nup43", "amplicon": "DRSC16279", "induced reporter light, run 1, well a": 2.47e5, "induced reporter light, run 1, well b": 2.62e5, "control promoter light, run 1, well a": 2.85e5, "control promoter light, run 1, well b": 3.07e5, "uninduced reporter light, run 1, well a": 17495, "outcome": "inactive"}
{"target": "ecd", "amplicon": "DRSC08574", "induced reporter light, run 1, well a": 62150, "induced reporter light, run 1, well b": 57750, "control promoter light, run 1, well a": 91285, "control promoter light, run 1, well b": 1.02e5, "uninduced reporter light, run 1, well a": 4800, "outcome": "inactive"}
{"target": "MED14", "amplicon": "DRSC08235", "induced reporter light, run 1, well a": 14225, "induced reporter light, run 1, well b": 13800, "control promoter light, run 1, well a": 17595, "control promoter light, run 1, well b": 18655, "uninduced reporter light, run 1, well a": 2810, "outcome": "inactive"}
{"target": "Agpat2", "amplicon": "DRSC03532", "induced reporter light, run 1, well a": 2.06e5, "induced reporter light, run 1, well b": 1.80e5, "control promoter light, run 1, well a": 2.13e5, "control promoter light, run 1, well b": 1.96e5, "uninduced reporter light, run 1, well a": 16550, "outcome": "inactive"}
{"target": "shakB", "amplicon": "DRSC20492", "induced reporter light, run 1, well a": 1.15e5, "induced reporter light, run 1, well b": 99495, "control promoter light, run 1, well a": 1.31e5, "control promoter light, run 1, well b": 1.37e5, "uninduced reporter light, run 1, well a": 12110, "outcome": "inactive"}
{"target": "shakB", "amplicon": "DRSC20585", "induced reporter light, run 1, well a": 1.34e5, "induced reporter light, run 1, well b": 1.11e5, "control promoter light, run 1, well a": 1.11e5, "control promoter light, run 1, well b": 1.45e5, "uninduced reporter light, run 1, well a": 12240, "outcome": "inactive"}
{"target": "CG8668", "amplicon": "DRSC03101", "induced reporter light, run 1, well a": 81900, "induced reporter light, run 1, well b": 78120, "control promoter light, run 1, well a": 75045, "control promoter light, run 1, well b": 61480, "uninduced reporter light, run 1, well a": 6565, "outcome": "inactive"}
